Test results published in publication doi:10.1101/258228.

By UniProt entry, the sequences of proteins in these tests, tags left out. Where a name states a change or a piece, a line headed by the entry shows the natural chain unless it says otherwise.
UniProt Q8GUI6: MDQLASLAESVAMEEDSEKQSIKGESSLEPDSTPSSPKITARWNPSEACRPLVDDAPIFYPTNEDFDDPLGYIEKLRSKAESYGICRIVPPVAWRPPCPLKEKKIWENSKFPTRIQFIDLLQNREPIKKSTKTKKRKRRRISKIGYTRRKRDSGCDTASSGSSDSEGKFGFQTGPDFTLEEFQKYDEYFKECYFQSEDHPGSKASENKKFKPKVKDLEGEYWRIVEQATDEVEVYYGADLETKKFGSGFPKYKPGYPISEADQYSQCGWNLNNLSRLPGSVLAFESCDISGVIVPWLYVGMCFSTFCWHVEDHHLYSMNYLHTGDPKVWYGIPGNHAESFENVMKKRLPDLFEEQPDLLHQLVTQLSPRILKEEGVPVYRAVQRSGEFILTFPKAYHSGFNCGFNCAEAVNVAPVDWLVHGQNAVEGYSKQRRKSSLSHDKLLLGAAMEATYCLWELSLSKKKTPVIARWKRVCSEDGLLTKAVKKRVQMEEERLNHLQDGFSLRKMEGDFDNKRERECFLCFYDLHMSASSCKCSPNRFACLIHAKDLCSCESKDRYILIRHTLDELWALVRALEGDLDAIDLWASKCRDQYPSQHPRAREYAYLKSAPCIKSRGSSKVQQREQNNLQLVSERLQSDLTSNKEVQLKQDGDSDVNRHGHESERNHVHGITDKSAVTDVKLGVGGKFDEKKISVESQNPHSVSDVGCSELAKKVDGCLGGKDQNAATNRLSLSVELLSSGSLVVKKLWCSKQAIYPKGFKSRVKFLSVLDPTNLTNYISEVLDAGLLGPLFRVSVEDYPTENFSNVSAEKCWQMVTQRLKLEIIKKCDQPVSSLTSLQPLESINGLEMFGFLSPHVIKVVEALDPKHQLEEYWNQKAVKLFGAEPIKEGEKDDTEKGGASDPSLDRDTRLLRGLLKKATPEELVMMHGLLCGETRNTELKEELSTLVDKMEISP
UniProt Q1G3I2: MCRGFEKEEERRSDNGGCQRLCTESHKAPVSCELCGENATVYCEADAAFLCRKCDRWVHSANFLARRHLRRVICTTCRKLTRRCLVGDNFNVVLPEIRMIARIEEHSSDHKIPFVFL
UniProt Q9LRM4: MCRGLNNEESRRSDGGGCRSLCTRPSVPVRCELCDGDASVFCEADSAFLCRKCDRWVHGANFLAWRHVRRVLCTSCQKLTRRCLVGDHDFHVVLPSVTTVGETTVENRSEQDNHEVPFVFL

Assays:
Test in all cases: affinity purification with mass spectrometry
[1] = biological target: FLAG-JMJ14 (Arabidopsis thaliana) (UniProt Q8GUI6)
[2] = biological target: FLAG-miP1a (Arabidopsis thaliana) (UniProt Q1G3I2)
[3] = biological target: FLAG-miP1b (Arabidopsis thaliana) (UniProt Q9LRM4)

Binder	binding [1]	binding [2]	binding [3]
NAC50 (protein, UniProt Q9SQX9 1-447) MGRESLAVVSSPPSATAPSTAVSATSLAPGFRFHPTDEELVSYYLKRKVLGKPVRFDAIGEVDIYKHEPWDLAVFSKLKTRDQEWYFFSALDKKYGNGARMNRATNKGYWKATGKDREIRRDIQLLGMKKTLVFHSGRAPDGLRTNWVMHEYRLVEYETETNGSLLQDAYVLCRVFHKNNIGPPSGNRYAPFMEEEWADGGGALIPGIDVRVRVEALPQANGNNQMDQEMHSASKDLININELPRDATPMDIEPNQQNHHESAFKPQESNNHSGYEEDEDTLKREHAEEDERPPSLCILNKEAPLPLLQYKRRRQNESNNNSSRNTQDHCSSTITTVDNTTTLISSSAAAATNTAISALLEFSLMGISDKKENQQKEETSPPSPIASPEEKVNDLQKEVHQMSVERETFKLEMMSAEAMISILQSRIDALRQENEELKKKNASGQAS	binds		
NAC52 (protein, UniProt Q9SQY0 1-451) MGRESVAVVTAPPSATAPGTASVATSLAPGFRFHPTDEELVSYYLKRKVLGQPVRFDAIGEVDIYKHEPWDLAVFSRLKTRDQEWYFYSALDKKYGNGARMNRATNRGYWKATGKDREIRRDILLLGMKKTLVFHSGRAPDGLRTNWVMHEYRLVEYETEKNGNLVQDAYVLCRVFHKNNIGPPSGNRYAPFMEEEWADDEGALIPGIDVKLRLEPPPVANGNDQMDQEIQSASKSLININEPPRETAPLDIESDQQNHHENDLKPEEHNNNNNYDENEETLKREQMEEEERPPRPVCVLNKEAPLPLLQYKRRRQSESNNNSSRNTQDHCSSTTTTVDNTTTLISSSAAATNTAISALLEFSLMGISDKKEKPQQPLRPHKEPLPPQTPLASPEEKVNDLQKEIHQMSVERETFKLEMMSAEAMISILQSRIDALRQENEELKKNNANGQ	binds		
CONSTANS-like 4 (COL4) protein (protein, UniProt Q940T9 1-362) MASKLCDSCKSATAALYCRPDAAFLCLSCDSKVHAANKLASRHARVWMCEVCEQAPAHVTCKADAAALCVTCDRDIHSANPLARRHERVPVTPFYDSVSSDGSVKHTAVNFLDDCYFSDIDGNGSREEEEEEAASWLLLPNPKTTTTATAGIVAVTSAEEVPGDSPEMNTGQQYLFSDPDPYLDLDYGNVDPKVESLEQNSSGTDGVVPVENRTVRIPTVNENCFEMDFTGGSKGFTYGGGYNCISHSVSSSSMEVGVVPDGGSVADVSYPYGGPATSGADPGTQRAVPLTSAEREARVMRYREKRKNRKFEKTIRYASRKAYAEMRPRIKGRFAKRTDTNESNDVVGHGGIFSGFGLVPTF		binds	binds
TOPLESS (protein, UniProt Q94AI7 1-1131) MSSLSRELVFLILQFLDEEKFKETVHKLEQESGFFFNMKYFEDEVHNGNWDEVEKYLSGFTKVDDNRYSMKIFFEIRKQKYLEALDKHDRPKAVDILVKDLKVFSTFNEELFKEITQLLTLENFRENEQLSKYGDTKSARAIMLVELKKLIEANPLFRDKLQFPTLRNSRLRTLINQSLNWQHQLCKNPRPNPDIKTLFVDHSCGPPNGARAPSPVNNPLLGGIPKAGGFPPLGAHGPFQPTASPVPTPLAGWMSSPSSVPHPAVSAGAIALGGPSIPAALKHPRTPPTNASLDYPSADSEHVSKRTRPMGISDEVNLGVNMLPMSFSGQAHGHSPAFKAPDDLPKTVARTLSQGSSPMSMDFHPIKQTLLLVGTNVGDIGLWEVGSRERLVQKTFKVWDLSKCSMPLQAALVKEPVVSVNRVIWSPDGSLFGVAYSRHIVQLYSYHGGEDMRQHLEIDAHVGGVNDISFSTPNKQLCVITCGDDKTIKVWDAATGVKRHTFEGHEAPVYSVCPHYKENIQFIFSTALDGKIKAWLYDNMGSRVDYDAPGRWCTTMAYSADGTRLFSCGTSKDGESFIVEWNESEGAVKRTYQGFHKRSLGVVQFDTTKNRYLAAGDDFSIKFWDMDAVQLLTAIDGDGGLQASPRIRFNKEGSLLAVSGNENVIKIMANSDGLRLLHTFENISSESSKPAINSIAAAAAAAATSAGHADRSANVVSIQGMNGDSRNMVDVKPVITEESNDKSKIWKLTEVSEPSQCRSLRLPENLRVAKISRLIFTNSGNAILALASNAIHLLWKWQRNERNATGKATASLPPQQWQPASGILMTNDVAETNPEEAVPCFALSKNDSYVMSASGGKISLFNMMTFKTMATFMPPPPAATFLAFHPQDNNIIAIGMDDSTIQIYNVRVDEVKSKLKGHSKRITGLAFSNVLNVLVSSGADAQLCVWNTDGWEKQRSKVLPLPQGRPNSAPSDTRVQFHQDQAHFLVVHETQLAIYETTKLECMKQWAVRESLAPITHATFSCDSQLVYASFMDATVCVFSSANLRLRCRVNPSAYLPASLSNSNVHPLVIAAHPQEPNMFAVGLSDGGVHIFEPLESEGKWGVAPPAENGSASGAPTAPSVGASASDQPQR	binds	binds	binds
CONSTANS-like 9 (protein, UniProt Q9SSE5 1-372) MGYMCDFCGEQRSMVYCRSDAACLCLSCDRSVHSANALSKRHSRTLVCERCNAQPATVRCVEERVSLCQNCDWSGHNNSNNNNSSSSSTSPQQHKRQTISCYSGCPSSSELASIWSFCLDLAGQSICEQELGMMNIDDDGPTDKKTCNEDKKDVLVGSSSIPETSSVPQGKSSSAKDVGMCEDDFYGNLGMDEVDMALENYEELFGTAFNPSEELFGHGGIDSLFHKHQTAPEGGNSVQPAGSNDSFMSSKTEPIICFASKPAHSNISFSGVTGESSAGDFQECGASSSIQLSGEPPWYPPTLQDNNACSHSVTRNNAVMRYKEKKKARKFDKRVRYASRKARADVRRRVKGRFVKAGEAYDYDPLTPTRSY		binds	binds

No constants are given. Whether binding was seen depends on the method and setting. Binding seen in cells or lysates may run through a third protein. A yes stands for co-enrichment or nearness to the bait. Other partners may have been found.
